{"source": "PubChem BioAssay AID1159584 (Peter MacCallum Cancer Centre, 2016)", "aim": "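Genes whose loss is lethal only together with E-cadherin loss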 (primary screen)", "system": "human MCF10A breast epithelial cells, parental and CDH1-null", "knock-down reagent": "siRNA against human genes", "detection": "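Cell viability by CellTiter-Glo ATP luminescence, each line scaled to the mean of mock wells across plates, then CDH1-null over parental ratio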", "reading the numbers": "CDH1-null / parental viability ratio: higher = CDH1-null cells survive relatively better than parental", "note": "In all, the deposit lists about 18,000 reagents; this is an unselected part. Reagents against one gene are numbered here. Not all columns of the deposit are shown. Reagent sequences are not shown. Not stated in the record: the amount of reagent, the time to read-out."}
{"Gene": "MPHOSPH6", "reagent": 1, "CDH1-null / parental viability ratio": 0.87}
{"Gene": "RFX7", "reagent": 1, "CDH1-null / parental viability ratio": 0.82}
{"Gene": "GPAT2", "reagent": 1, "CDH1-null / parental viability ratio": 1.45}
{"Gene": "TRIM5", "reagent": 1, "CDH1-null / parental viability ratio": 0.58}
{"Gene": "RABGEF1", "reagent": 1, "CDH1-null / parental viability ratio": 0.78}
{"Gene": "EPB41L2", "reagent": 1, "CDH1-null / parental viability ratio": 0.99}
{"Gene": "AK3", "reagent": 1, "CDH1-null / parental viability ratio": 0.72}
{"Gene": "SRARP", "reagent": 1, "CDH1-null / parental viability ratio": 0.91}
{"Gene": "ISCA1", "reagent": 1, "CDH1-null / parental viability ratio": 0.8}
{"Gene": "MIA2", "reagent": 1, "CDH1-null / parental viability ratio": 1.09}
{"Gene": "MIA2", "reagent": 2, "CDH1-null / parental viability ratio": 0.9}
{"Gene": "CPOX", "reagent": 1, "CDH1-null / parental viability ratio": 0.66}
{"Gene": "ETFDH", "reagent": 1, "CDH1-null / parental viability ratio": 0.93}
{"Gene": "VIL1", "reagent": 1, "CDH1-null / parental viability ratio": 0.8}

In a second layout: results already given.
Gene	reagent	CDH1-null / parental viability ratio
CPOX	1	0.66
ETFDH	1	0.93
